Article PMC10810035
No constants are given. Whether binding was seen depends on the method and setting. Binding seen in cells or lysates may run through a third protein. Some entries that bind do so weakly or less than the wild type. Sequences can lack the tags named with a protein.

Protein sequences, listed by entry. Tags and fused reporters are not part of them.
UniProt P46379: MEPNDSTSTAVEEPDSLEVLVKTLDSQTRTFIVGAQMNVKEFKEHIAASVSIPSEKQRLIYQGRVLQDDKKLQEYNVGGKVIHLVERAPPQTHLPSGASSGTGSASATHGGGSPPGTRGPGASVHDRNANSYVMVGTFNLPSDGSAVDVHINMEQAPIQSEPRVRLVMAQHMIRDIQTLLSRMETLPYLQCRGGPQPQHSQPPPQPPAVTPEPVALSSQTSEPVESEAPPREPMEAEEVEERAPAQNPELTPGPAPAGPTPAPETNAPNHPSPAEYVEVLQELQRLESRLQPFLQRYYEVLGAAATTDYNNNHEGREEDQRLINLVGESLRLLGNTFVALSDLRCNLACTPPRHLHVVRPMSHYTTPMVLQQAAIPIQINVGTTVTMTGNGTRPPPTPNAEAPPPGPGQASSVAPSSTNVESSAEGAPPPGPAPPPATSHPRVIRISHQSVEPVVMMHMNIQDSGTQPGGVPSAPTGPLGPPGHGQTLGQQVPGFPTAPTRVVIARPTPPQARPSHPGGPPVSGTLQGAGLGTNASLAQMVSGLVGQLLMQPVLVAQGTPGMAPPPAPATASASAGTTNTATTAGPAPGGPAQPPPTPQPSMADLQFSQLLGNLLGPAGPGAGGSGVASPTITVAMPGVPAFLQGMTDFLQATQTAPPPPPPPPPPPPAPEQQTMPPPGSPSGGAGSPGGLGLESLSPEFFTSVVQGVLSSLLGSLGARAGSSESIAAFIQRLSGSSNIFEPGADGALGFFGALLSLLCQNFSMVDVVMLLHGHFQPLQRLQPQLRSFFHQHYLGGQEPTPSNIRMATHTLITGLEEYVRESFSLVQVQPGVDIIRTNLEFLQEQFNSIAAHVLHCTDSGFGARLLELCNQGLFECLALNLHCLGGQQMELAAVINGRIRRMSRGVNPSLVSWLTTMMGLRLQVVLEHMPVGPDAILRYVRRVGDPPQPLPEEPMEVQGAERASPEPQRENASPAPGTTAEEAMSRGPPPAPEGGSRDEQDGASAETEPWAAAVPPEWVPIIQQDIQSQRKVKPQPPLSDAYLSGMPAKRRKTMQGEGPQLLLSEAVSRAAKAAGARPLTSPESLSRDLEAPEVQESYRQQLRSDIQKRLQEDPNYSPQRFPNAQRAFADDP

Tests used:
[1] = molecular target: T1, Flag-DERL2 (derlin 2) (human (cDNA amplified from QBC939 cells)) (UniProt Q9GZP9); experiment: co-IP; 293T cells co-transfected with Flag-DERL2 and/or HA-BAG6 vectors, 48 h; lysate immunoprecipitated with anti-HA beads (Fig. 11B) or anti-Flag beads (Fig. 11C); western blot
T1 sequence: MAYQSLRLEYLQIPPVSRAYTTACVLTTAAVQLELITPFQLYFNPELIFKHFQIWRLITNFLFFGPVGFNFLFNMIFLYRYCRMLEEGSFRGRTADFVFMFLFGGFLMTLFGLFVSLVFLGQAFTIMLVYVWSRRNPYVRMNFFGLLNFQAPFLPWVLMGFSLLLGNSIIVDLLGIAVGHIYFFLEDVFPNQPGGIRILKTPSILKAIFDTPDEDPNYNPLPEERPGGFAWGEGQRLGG

[2] = molecular target: HA-BAG6 (BAG cochaperone 6) (human) (UniProt P46379); experiment: as above

How did the binding [1] turn out when “HA-BAG6 (BAG cochaperone 6) (from UniProt P46379 1-1132)” was run?
The binding was “binds”.

B1: Flag-DERL2 (derlin 2) (protein, UniProt Q9GZP9 1-239)
chain: T1 sequence
How did the binding [2] turn out when B1 was run?
Its binding is “binds”.
